Source: patent publication US10046022B2, “Synthetic peptide that increases radiosensitivity of tumor cells and use of same” (TOAGOSEI CO., LTD., priority 2015, dated 2018)
Not every detail of the peptide structures is certain; ends, links or a residue may be inferred. Peptide text beside a SMILES is read from it.

Legend:
HeLaS3 cells = experiment: Radiosensitizing activity: cell survival rate (Cell Counting Kit-8, WST-8) of HeLaS3 cells after peptide and X-ray irradiation; type: cell-based, human
Method: Radiosensitizing activity of the radiosensitizing synthetic peptide (Sample 1) obtained in Example 1 was evaluated by measuring cell survival rates during culturing after having irradiated test cells supplied with the radiosensitizing synthetic peptide with radiation (here, X-rays).
Human carcinoma-derived cells (HeLaS3 cells) and cells derived from normal human tissue (CCD-1079Sk cells) were used for the test cells. […] Details of the evaluation test are as indicated below.
First, a cultured cell line derived from human cervical cancer in the form of HeLaS3 cells (ATCC™ CCL2.2) were prepared for use as test cells derived from a human tumor. […]
Next, at the point 48 hours had elapsed following X-ray irradiation, the viability of the test cells (the number of viable cells) was measured using a commercially available chromogenic assay kit (Cell Counting Kit-8, Dojindo Molecular Technologies, Inc.). Namely, the number of viable cells was measured by colorimetry by quantifying the amount of water-soluble formazan in the medium by measuring using absorption spectrophotometry (measuring wavelength: 450 nm, reference wavelength: 650 nm) based on the principle that the tetrazolium salt in the reagent is reduced by enzyme activity of viable cells resulting in the formation of water-soluble formazan. […]

[1] = tested on: tumor tissue removed from the body; experiment: Radiosensitizing activity on tumor tissue removed from the body; type: cell-based; conditions: tissue supplied with the peptide, irradiated with X-rays, then cultured; compared with tissue without peptide or not irradiated; procedure not given
CCD-1079Sk cells = experiment: Radiosensitizing activity: cell survival rate (Cell Counting Kit-8, WST-8) of CCD-1079Sk cells after peptide and X-ray irradiation; type: cell-based, human

N=C(N)NCCC[C@H](NC(=O)[C@H](CCCNC(=N)N)NC(=O)[C@H](CO)NC(=O)[C@H](CCCCN)NC(=O)[C@H](CO)NC(=O)[C@H](CCCCN)NC(=O)[C@@H](N)CS)C(=O)N[C@@H](CO)C(=O)N[C@@H](CS)C(=O)O [Sample 1, CKSKSRRSC] (H-CKSKSRRSC-OH)
cell survival rate, Test Group 3 in comparison with Test Group 4 (HeLaS3 cells; peptide 50 μM for 24 hours, then X-rays 2 Gy, measured 48 hours after irradiation, compared with 0 μM peptide + 2 Gy): remarkable lower cell survival rate | radiosensitivity of the HeLaS3 cells to X-rays (HeLaS3 cells; peptide 50 μM, X-rays 2 Gy): increased the radiosensitivity | tumor tissue volume [1]: remarkable decrease in tumor tissue volume | cell survival rate, Test Group 7 in comparison with Test Group 8 (CCD-1079Sk cells; peptide 50 μM for 24 hours, then X-rays 3 Gy, measured 48 hours after irradiation, compared with 0 μM peptide + 3 Gy): nearly the same | X-ray sensitivity in CCD-1079Sk cells (CCD-1079Sk cells; peptide 50 μM, X-rays 3 Gy): no change in X-ray sensitivity
